Experiment [1] has as its target human Acinus RNA recognition motif domain (AcRRM) (human) (UniProt Q9UKV3). The experiment is described as follows: SEC; Superdex 75 10/300 GL, 50 mM Hepes-NaOH pH 8, 100 mM NaCl, reducing conditions (AcRRM in 1 mM or 10 mM DTT, column with 1 mM DTT); both purified. (In general: In gel filtration, larger molecules generally elute earlier.)
The target is the same in experiment [2]. The experiment is described as follows: crystal structure; X-ray, 1.65 Å, space group P212121, two monomers in the asymmetric unit linked by a C1083-C1083 disulfide bond; crystals from 0.2 M ammonium acetate, 100 mM Tris-HCl pH 8.5, 25% PEG 3,350, 18 °C; both purified.

No constants are given. Whether binding was seen depends on the method and setting.

B1: human Acinus RNA recognition motif domain (AcRRM) (domain or fragment, UniProt Q9UKV3 1008-1100)
chain: GSGKISNIVHISNLVRPFTLGQLKELLGRTGTLVEEAFWIDKIKSHCFVTYSTVEEAVATRTALHGVKWPQSNPKFLCADYAEQDELDYHRGLLV
For the molecule B1, the values for the binding result in experiment [1] and in experiment [2] were “no binding (condition: in reducing conditions (DTT))” and “no binding”, respectively.

The values are drawn from paper PMC6057467.
